PubChem BioAssay AID1259308 – NCATS | 2017
Here is one part, drawn at random, of about 59,000 reagents tested. About 1,510 of all reagents (2.6%) count as active. 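Calls use total luciferase alone and ignore viability, so some active siRNAs may act by altering cell number.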 Entries without a mark were called inactive. Reagents against one gene are numbered here. Not all columns of the deposit are shown.

Test: 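Knock-downs that increase output of a recombinant reporter protein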 (primary screen)
System: human HEK293 embryonic kidney cells stably expressing firefly luciferase (HEK-CMV-Luc2-Hygro)
Reagents: single siRNA against human genes, 0.8 pmol siRNA per well
Duration: 72 h
Measured: 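Reporter luminescence and viable-cell signal on separate replicate plates, given as percent of non-targeting control and median/MAD z-scores, plus per-cell luciferase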
Scale: total luciferase, z-score: higher = more reporter protein produced
Hit rule: 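An siRNA counts as active if its total luciferase robust z-score exceeds 3; genes with two or more such siRNAs out of three were retested with fresh siRNAs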
Meaning of the calls: active = raised luciferase; inactive = no rise

total luciferase, z-score, by target gene and reagent
LY6E: #1 2.62; #2 0.018; #3 -1.79
BLOC1S4: #1 0.392; #2 0.436; #3 -0.473
ELK1P1: #1 -0.0486; #2 1.24; #3 -0.0908
H4C12: #1 4.89 (active); #2 1.12; #3 0.0896
SNAP25: #1 -1.35; #2 -0.331; #3 0.915
FEM1C: #1 0.0517; #2 -0.876; #3 0.954
RCC1: #1 1.84; #2 1.55; #3 0.101
ZMYND8: #1 -0.0725; #2 0.351; #3 -0.452

Laid out differently: 8 of the entries above
{"Target gene": "H4C12", "reagent no.": 1, "total luciferase, z-score": "4.89 (active)"}
{"Target gene": "H4C12", "reagent no.": 2, "total luciferase, z-score": 1.12}
{"Target gene": "H4C12", "reagent no.": 3, "total luciferase, z-score": 0.0896}
{"Target gene": "SNAP25", "reagent no.": 1, "total luciferase, z-score": -1.35}
{"Target gene": "SNAP25", "reagent no.": 2, "total luciferase, z-score": -0.331}
{"Target gene": "SNAP25", "reagent no.": 3, "total luciferase, z-score": 0.915}
{"Target gene": "FEM1C", "reagent no.": 1, "total luciferase, z-score": 0.0517}
{"Target gene": "FEM1C", "reagent no.": 2, "total luciferase, z-score": -0.876}

Next records:
total luciferase, z-score, by target gene and reagent
CYB561A3: #1 -0.134; #2 -1.88; #3 -0.521
KIR2DL1: #1 1.6; #2 1.63; #3 0.278
METTL25: #1 2.03; #2 -0.66; #3 0.39
LINC01588: #1 0.388; #2 0.163; #3 -0.119
CIBAR2: #1 0.846; #2 0.122; #3 1.38
DDX10: #1 -0.813; #2 -1.74; #3 -1.2
SIRPB1: #1 -0.0381; #2 1.93; #3 -2.43
ENHO: #1 0.892; #2 -3.09; #3 -1.09
RPL9: #1 -2.47; #2 -2.51; #3 -2.62
CTBS: #1 0.31; #2 -0.447; #3 -0.451
LINC02875: #1 3.66 (active); #2 -1.5; #3 -0.13
